Results are given in words; binding and its absence hold for the method and conditions named. Some results given as binding are weak or reduced against the parent protein; the word gives no strength. Sequences can lack the tags named with a protein.
Molecular target: T1, his-tagged DXD3 (LARGE1dTM D563N/D565N) (UniProt O95461)
T1 sequence: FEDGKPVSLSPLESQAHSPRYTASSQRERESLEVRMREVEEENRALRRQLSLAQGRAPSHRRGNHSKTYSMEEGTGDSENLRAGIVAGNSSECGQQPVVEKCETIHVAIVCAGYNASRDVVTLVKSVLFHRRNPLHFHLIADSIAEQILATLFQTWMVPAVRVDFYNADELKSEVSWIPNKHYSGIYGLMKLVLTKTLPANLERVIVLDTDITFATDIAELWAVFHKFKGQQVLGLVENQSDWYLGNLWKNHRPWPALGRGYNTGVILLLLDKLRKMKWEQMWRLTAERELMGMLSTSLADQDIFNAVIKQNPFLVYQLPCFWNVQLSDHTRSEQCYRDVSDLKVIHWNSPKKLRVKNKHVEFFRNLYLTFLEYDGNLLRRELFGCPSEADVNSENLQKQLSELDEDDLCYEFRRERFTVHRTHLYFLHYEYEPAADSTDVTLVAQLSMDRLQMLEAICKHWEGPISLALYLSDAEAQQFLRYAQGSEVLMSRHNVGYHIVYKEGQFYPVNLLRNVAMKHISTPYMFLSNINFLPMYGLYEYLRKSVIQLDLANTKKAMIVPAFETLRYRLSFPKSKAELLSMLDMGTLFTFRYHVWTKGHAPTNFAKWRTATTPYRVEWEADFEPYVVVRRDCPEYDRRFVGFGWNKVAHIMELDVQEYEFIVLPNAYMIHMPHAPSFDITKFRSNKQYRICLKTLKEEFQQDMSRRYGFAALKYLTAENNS
Experiment: tandem affinity purification; co-expression of two differently tagged LARGE1dTM protomers (FLAG-tagged DXD1 and his-tagged DXD3), then tandem affinity purification

B1: FLAG-tagged DXD1 (LARGE1dTM D242N/D244N) (enzyme, UniProt O95461 34-756)
chain: FEDGKPVSLSPLESQAHSPRYTASSQRERESLEVRMREVEEENRALRRQLSLAQGRAPSHRRGNHSKTYSMEEGTGDSENLRAGIVAGNSSECGQQPVVEKCETIHVAIVCAGYNASRDVVTLVKSVLFHRRNPLHFHLIADSIAEQILATLFQTWMVPAVRVDFYNADELKSEVSWIPNKHYSGIYGLMKLVLTKTLPANLERVIVLNTNITFATDIAELWAVFHKFKGQQVLGLVENQSDWYLGNLWKNHRPWPALGRGYNTGVILLLLDKLRKMKWEQMWRLTAERELMGMLSTSLADQDIFNAVIKQNPFLVYQLPCFWNVQLSDHTRSEQCYRDVSDLKVIHWNSPKKLRVKNKHVEFFRNLYLTFLEYDGNLLRRELFGCPSEADVNSENLQKQLSELDEDDLCYEFRRERFTVHRTHLYFLHYEYEPAADSTDVTLVAQLSMDRLQMLEAICKHWEGPISLALYLSDAEAQQFLRYAQGSEVLMSRHNVGYHIVYKEGQFYPVNLLRNVAMKHISTPYMFLSDIDFLPMYGLYEYLRKSVIQLDLANTKKAMIVPAFETLRYRLSFPKSKAELLSMLDMGTLFTFRYHVWTKGHAPTNFAKWRTATTPYRVEWEADFEPYVVVRRDCPEYDRRFVGFGWNKVAHIMELDVQEYEFIVLPNAYMIHMPHAPSFDITKFRSNKQYRICLKTLKEEFQQDMSRRYGFAALKYLTAENNS
  binding: binds

— paper PMC12514197
